Reference: PubChem BioAssay AID274 (DTP/NCI, 2004)
The list does not hold the whole screen: it gathers tests that were run many times, whatever their T/C, doses with no T/C, and many T/C values between a quarter and a half above the control. Further doses and runs are listed elsewhere. T/C: endpoint of the treated group in % of that of the vehicle group. Some doses have a count of surviving animals in place of a T/C: the source files T/C as zero there, which appears to mark a toxic dose or a test without result, not a measured value. Some doses without a T/C left all or most animals alive at the check, yet need not have been tolerated: survival well below the control is almost never listed, so the zero probably covers shortened survival too. Counts of survivors are from the toxicity check (mostly the fifth day) where no day follows; animals may have died later. Schedules are NCI's codes, taken here to give the interval after Q, in days (D) or hours (H), and the number of doses after X. Some molecules as drawn cover several salts, stereoisomers or complexes of the source; a dose is that of the sample tested. For survival time, the PubChem record calls one and a half times the control and up active, and a quarter to a half above the control has no call in these data; cut-offs in other NCI protocols can differ. Some entries hold several experiments; their values stand side by side, smallest first. Some T/C values carry the count of animals alive at the toxicity check (mostly the fifth day); where none is given, no animal had died by that day.

Test system: BDF1 mice, Lewis lung carcinoma iv, survival T/C
Assay: NCI In Vivo Anticancer Drug Screen. Data for tumor model Lewis Lung Carcinoma (intravenous) in B6D2F1 (BDF1) mice
Conditions: T/C endpoint: median survival time, higher T/C = longer survival
Experimental: The antitumor activity of compounds was measured in mice bearing transplantable tumors. Survival or tumor size were measured and the results are expressed as the measurement made in the treated group (T) divided by the measurement made in the vehicle treated control group (C). The tumor model used in this assay is Lewis Lung Carcinoma (intravenous) in B6D2F1 (BDF1) mice

[1] = dose: 25.0 mg/kg/injection, schedule: Q01DX009 (ip), vehicle: saline with Tween-80
[2] = dose: 50.0 mg/kg/injection, schedule: Q01DX009 (ip), vehicle: saline with Tween-80
[3] = dose: 200.0 mg/kg/injection, schedule: Q01DX009 (ip), vehicle: saline
[4] = dose: 50.0 mg/kg/injection, schedule: Q01DX009 (ip), vehicle: Klucel (hydroxypropylcellulose) (HPC)
[5] = dose: 100.0 mg/kg/injection, schedule: Q01DX009 (ip), vehicle: Klucel (hydroxypropylcellulose) (HPC)
[6] = dose: 200.0 mg/kg/injection, schedule: Q01DX009 (ip), vehicle: Klucel (hydroxypropylcellulose) (HPC)
[7] = dose: 400.0 mg/kg/injection, schedule: Q01DX009 (ip), vehicle: saline
[8] = dose: 100.0 mg/kg/injection, schedule: Q01DX009 (ip), vehicle: saline with Tween-80
[9] = dose: 400.0 mg/kg/injection, schedule: Q01DX009 (ip), vehicle: saline with Tween-80

Structure (SMILES): COc1cc(O)c2c(O)c3c(c4c2c1[C@]1(C4)C(C)=CCCC1(C)C)[C@H](O)[C@@]1(O)CC(=O)C(C(N)=O)=C(O)[C@@]1(O)C3=O
- survivor count [1]: 10 of 10
- survivor count [2]: 6 of 10

Structure (SMILES): C1OC1CO[C@@H]1CO[C@H]2[C@@H]1OC[C@H]2OCC1CO1 (some centres not stated)
- T/C [3]: 146 % of control

Structure (SMILES): Cc1cc2c(c3oc(C4(C)OC4C4OC4C)cc(=O)c13)C(=O)c1c(O)c(C3CC(C)(N(C)C)C(O)C(C)O3)cc(C3CC(N(C)C)C(O)C(C)O3)c1C2=O (configuration not stated)
- T/C (dose: 0.6 micrograms/kg/injection, schedule: Q01DX009 (ip), vehicle: Klucel (hydroxypropylcellulose) (HPC)): 134 % of control
- survivor count (dose: 1.2 micrograms/kg/injection, schedule: Q01DX009 (ip), vehicle: Klucel (hydroxypropylcellulose) (HPC)): 10 of 10
- survivor count (dose: 2.5 micrograms/kg/injection, schedule: Q01DX009 (ip), vehicle: Klucel (hydroxypropylcellulose) (HPC)): 10 of 10
- survivor count (dose: 5.0 micrograms/kg/injection, schedule: Q01DX009 (ip), vehicle: Klucel (hydroxypropylcellulose) (HPC)): 10 of 10
- survivor count (dose: 10.0 micrograms/kg/injection, schedule: Q01DX009 (ip), vehicle: Klucel (hydroxypropylcellulose) (HPC)): 10 of 10
- survivor count (dose: 20.0 micrograms/kg/injection, schedule: Q01DX009 (ip), vehicle: Klucel (hydroxypropylcellulose) (HPC)): 6 of 10

Structure (SMILES): Cc1c2ccncc2c(C)c2c1[nH]c1ccccc12
- T/C [4]: 127 % of control
- survivor count [5]: 10 of 10
- survivor count [6]: 10 of 10

Structure (SMILES): C=C1C(=O)OCC2C(C(=O)O)=CC3C(C)C(C)=CC123 (configuration not stated)
- survivor count (dose: 20.0 mg/kg/injection, schedule: Q01DX009 (ip), vehicle: Klucel (hydroxypropylcellulose) (HPC)): 10 of 10

Structure (SMILES): OCCOCC(F)(F)F
- survivor count (dose: 50.0 mg/kg/injection, schedule: Q01DX009 (ip), vehicle: saline): 10 of 10
- survivor count (dose: 100.0 mg/kg/injection, schedule: Q01DX009 (ip), vehicle: saline): 10 of 10
- survivor count [3]: 10 of 10

Structure (SMILES): CCCCCC[C@H]([C@H](C)O)n1cnc2c(N)ncnc21
- T/C [4]: 130 % of control

Structure (SMILES): CN(C)[C@@H]1C(=O)C(C(N)=O)=C(O)[C@@]2(O)C(=O)C3=C(O)c4c(O)ccc(Cl)c4[C@@](C)(O)[C@H]3C[C@@H]12
- survivor count [7]: 10 of 10

Structure (SMILES): OCC(F)(F)C(F)(F)C(F)(F)F
- survivor count (dose: 75.0 mg/kg/injection, schedule: Q01DX009 (ip), vehicle: saline): 10 of 10
- survivor count (dose: 150.0 mg/kg/injection, schedule: Q01DX009 (ip), vehicle: saline): 10 of 10
- survivor count (dose: 300.0 mg/kg/injection, schedule: Q01DX009 (ip), vehicle: saline): 10 of 10
- survivor count (dose: 600.0 mg/kg/injection, schedule: Q01DX009 (ip), vehicle: saline): 10 of 10

Structure (SMILES): O=C(N/N=C/c1ccccc1O)c1ccncc1
- survivor count (dose: 450.0 mg/kg/injection, schedule: Q01DX007 (ip), vehicle: Klucel (hydroxypropylcellulose) (HPC)): 7 of 7

Structure (SMILES): CN(Cc1cnc2nc(N)nc(N)c2n1)c1c(Cl)cc(C(=O)NC(CCC(=O)O)C(=O)O)cc1Cl (configuration not stated)
- survivor count [5]: 9 of 10
- survivor count [6]: 10 of 10
- survivor count (dose: 400.0 mg/kg/injection, schedule: Q01DX009 (ip), vehicle: Klucel (hydroxypropylcellulose) (HPC)): 10 of 10

Structure (SMILES): NC(=O)c1csc(C2OC(CO)C(O)C2O)n1 (configuration not stated)
- survivor count (dose: 800.0 mg/kg/injection, schedule: Q01DX009 (ip), vehicle: water): 10 of 10

Structure (SMILES): CC1(C)CC23C4COC(=O)C2CCC1C3CC4=O (configuration not stated)
- T/C (dose: 3.0 mg/kg/injection, schedule: Q01DX009 (ip), vehicle: DMSO): 133 % of control
- T/C (dose: 96.0 mg/kg/injection, schedule: Q01DX009 (ip), vehicle: DMSO): 147 % of control

Structure (SMILES): c1nc(N2CC2)c2cnn(C3CCCCO3)c2n1 (configuration not stated)
- survivor count [6]: 3 of 10

Structure (SMILES): COC(=O)C(F)C(Br)C(=O)OC (configuration not stated)
- survivor count [8]: 1 of 10

Structure (SMILES): O=P1(NCCCl)OCCC(OO)N1CCCl (configuration not stated)
- T/C (dose: 154.0 mg/kg/injection, schedule: Q01DX001 (ip), vehicle: Klucel (hydroxypropylcellulose) (HPC)): 131 % of control
- survivor count (dose: 345.0 mg/kg/injection, schedule: Q01DX001 (ip), vehicle: Klucel (hydroxypropylcellulose) (HPC)): 5 of 10

Structure (SMILES): CC12CC(C(=O)O)C3(O)CC(C)(C1)CC(C)(C2)C3 (configuration not stated) (tested in a mixture with another compound)
- survivor count [9]: 0 of 10

Structure (SMILES): NC1=NC(=O)N2CC12 (configuration not stated)
- survivor count [7]: 5 of 10

Structure (SMILES): O=c1oc2c(O)c(O)cc3c(=O)oc4c(O)c(O)cc1c4c23
- T/C [6]: 126 % of control

Structure (SMILES): O=C1c2ccccc2C(=O)c2c3c(cc(NCCNCCO)c21)N(CCO)CCN3
- survivor count (dose: 12.5 mg/kg/injection, schedule: Q01DX009 (ip), vehicle: DMSO): 8 of 10
- survivor count (dose: 25.0 mg/kg/injection, schedule: Q01DX009 (ip), vehicle: DMSO): 8 of 10
- survivor count (dose: 100.0 mg/kg/injection, schedule: Q01DX009 (ip), vehicle: DMSO): 8 of 10
- survivor count (dose: 200.0 mg/kg/injection, schedule: Q01DX009 (ip), vehicle: DMSO): 7 of 10
- survivor count (dose: 400.0 mg/kg/injection, schedule: Q01DX009 (ip), vehicle: DMSO): 1 of 10

Structure (SMILES): N=C(N)SCc1cccc2c(=O)cc(-c3ccccc3)oc12
- survivor count [5]: 9 of 10
- survivor count [6]: 3 of 10
- survivor count [3]: 10 of 10

Structure (SMILES): C1CCC2OCCOCCOC3CCCCC3OCCOCCOC2C1 (configuration not stated)
- survivor count [5]: 0 of 10

Structure (SMILES): NC(=O)c1ccc(N)nc1
- T/C (dose: 2.0 mg/kg/injection, schedule: Q01DX009 (ip), vehicle: saline): 131 % of control
- survivor count (dose: 4.0 mg/kg/injection, schedule: Q01DX009 (ip), vehicle: saline): 10 of 10
- survivor count (dose: 8.0 mg/kg/injection, schedule: Q01DX009 (ip), vehicle: saline): 10 of 10

Structure (SMILES): Cc1cc2cc3cc(C)c(N)cc3nc2cc1N
- survivor count [2]: 10 of 10
- survivor count [8]: 1 of 10

Structure (SMILES): CC(CN1CC(=O)NC(=O)C1)N1CC(=O)NC(=O)C1 (configuration not stated)
- T/C (dose: 108.0 mg/kg/injection, schedule: Q04DX003 (ip), vehicle: Klucel (hydroxypropylcellulose) (HPC)): 129 % of control
- T/C (dose: 180.0 mg/kg/injection, schedule: Q04DX003 (ip), vehicle: Klucel (hydroxypropylcellulose) (HPC)): 129, 134, 138 % of control
- T/C (dose: 300.0 mg/kg/injection, schedule: Q04DX003 (ip), vehicle: Klucel (hydroxypropylcellulose) (HPC)): 140 % of control [6 of 8 alive]
- survivor count (dose: 500.0 mg/kg/injection, schedule: Q04DX003 (ip), vehicle: Klucel (hydroxypropylcellulose) (HPC)): 8 of 8

Structure (SMILES): NC(=O)c1cn(C2OC(CO)C(O)C2O)c2ncnc(N)c12 (configuration not stated)
- survivor count (dose: 3.0 mg/kg/injection, schedule: Q01DX009 (ip), vehicle: Klucel (hydroxypropylcellulose) (HPC)): 9 of 10

Structure (SMILES): CCCCCCCCCCCCCCCCCCCCCC(=O)Nc1ccn(C2OC(CO)C(O)C2O)c(=O)n1 (configuration not stated)
- T/C [9]: 149 % of control
- T/C (dose: 600.0 mg/kg/injection, schedule: Q01DX009 (ip), vehicle: saline with Tween-80): 132 % of control

Structure (SMILES): CC(=O)O[C@@H]1[C@@H](O)C2=C3[C@]4(C)[C@@H]1C(C)(C)C(=O)C[C@@H]4[C@]3(O)[C@H](OC(C)=O)[C@@]1(C[C@@H]1C)C2=O
- T/C [1]: 141 % of control
- survivor count [2]: 10 of 10
- survivor count [8]: 6 of 10

Structure (SMILES): C/C(=N\NC(N)=O)c1cccc(/C(C)=N/NC(N)=O)n1
- survivor count (dose: 200.0 mg/kg/injection, schedule: Q01DX009 (ip), vehicle: saline with Tween-80): 0 of 10

Structure (SMILES): O=C1c2ccccc2C(=O)c2c(NCCNCCO)ccc(NCCNCCO)c21
- T/C (dose: 1.0 mg/kg/injection, schedule: Q01DX005 (ip), vehicle: saline): 129 % of control
- T/C (dose: 2.0 mg/kg/injection, schedule: Q01DX005 (ip), vehicle: saline with Tween-80): 147 % of control
- T/C (dose: 4.0 mg/kg/injection, schedule: Q01DX005 (ip), vehicle: saline): 129 % of control
- T/C (dose: 8.0 mg/kg/injection, schedule: Q01DX009 (ip), vehicle: saline with Tween-80): 140 % of control
- survivor count (dose: 16.0 mg/kg/injection, schedule: Q01DX009 (ip), vehicle: saline with Tween-80): 10 of 10
- survivor count (dose: 32.0 mg/kg/injection, schedule: Q01DX009 (ip), vehicle: saline with Tween-80): 10 of 10
